According to patent US20070148684A1, “IMMUNOASSAY FOR HIV PROTEASE INHIBITORS” (priority 2000, published 2007):

Tested on: saquinavir antiserum
Test: Assay performance with serum milieu: saquinavir ELISA in 50% human serum
Assay type: binding, sheep
Details: final assay in 50% human serum
Description: An ELISA plate was coated with the above concentrations of saquinavir-BSA using the same conditions as set forth above. While the plates were being PostCoated, serial three-fold dilutions of saquinavir, ritonavir, indinavir, and nelfinavir were prepared in a 1 ml capacity 96-well plate. All drugs were prepared at 1 mg/ml in absolute methanol and stored at 4° C. until used. Briefly, 1 μl of each drug was transferred to wells of the first row of the plate, which contained 500 μl of PBS-TWEEN in each well of the first row and 200 μl of the same buffer in all other wells of those columns. After mixing, 100 μl from the first row of each of the four columns was transferred to the second row and mixed. This was repeated across each row until the seventh row was completed. The eighth row contained only buffer, this was the zero concentration of each drug. Upon completion of the PostCoat incubation, the coated plate was washed and 50 μl of solution was transferred from row H of the dilution plate to row H of the coated plate; this was repeated from row G to row A using a micropipettor equipped with 4 tips. Upon completion of this, 50 μl of saquinavir antiserum, diluted 1:12,800 in PBS-TWEEN, was added to each well of the coated plate. The plate was incubated as above. […] The drug evaluated was saquinavir, and the drug diluent was 100% normal human serum. […]

Question: Which results are given for `CC(C)(C)NC(=O)[C@@H]1C[C@@H]2CCCC[C@@H]2CN1C[C@@H](O)[C@H](Cc1ccccc1)NC(=O)[C@H](CC(N)=O)NC(=O)c1ccc2ccccc2n1` [saquinavir]?
Answer: range of the assay (FIG. 2): from less than a nanogram to 1 microgram per milliliter; lowest detectable level (estimated from dose response curve FIG. 2): 0.5 ng/mL
